This assay has as its system HCMV. The assay is described as follows: Anti-HCMV activity in cultured primary human fibroblasts. It counts as cell-based, Human cytomegalovirus. An excerpt: This example illustrates anti-HCMV activity of bromodomain inhibitors in cultured primary human fibroblasts.

Take `CCNC(=O)C[C@@H]1N=C(c2ccc(Cl)cc2)c2cc(OC)ccc2-n2c(C)nnc21` [I-BET762, 2-[(4S)-6-(4-chlorophenyl)-8-methoxy-1-methyl-4H-[1,2,4]triazolo[4,3-a][1,4]benzodiazepine-4-yl]-N-ethylacetamide]: the “Concentration to inhibit HCMV replication” value is 0.781 to 1.562 µM.
